# In PubChem BioAssay AID504834 (National Center for Advancing Translational Sciences (NCATS), 2011):
# Values joined by “and” are separate entries in the source; they are usually repeats but may differ in a detail not shown here. Equal entries are not always repeated. The whole screen tested about 320,000 compounds, of which about 22,000 (6.9%) were called active. The shares of active, inactive and inconclusive entries below differ from those in the screen. Calls come from the whole dose curve; as a rule, active = well fitted inhibition curve with a large enough effect; inconclusive = small, poorly fitted or top-dose-only effect, or another doubt; inactive = no such curve, though single readings can be large or run the other way. A potency beside an inconclusive call is a rough fit, not a confirmed value.
# Assay: Primary qHTS for delayed death inhibitors of the malarial parasite plastid, 96 hour incubation
# Details: P. falciparum luciferase reporter growth; series mostly up to 28.7 µM; activity change, negative = inhibition: at the top concentration
# Procedure, shortened: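 Erythrocytes infected with luciferase-expressing P. falciparum were dispensed at 2% hematocrit and 0.05% parasitemia (final), then incubated with compounds 96 hours at 37 C in 5% CO2. Luminescence after detection reagent addition reported growth.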
# % is set by controls: 0 for no effect and ±100 for the full control effect; potency is the fitted concentration of half-maximal effect.
SMILES,Potency,"activity change, negative = inhibition"
COC(=O)c1ccc2[nH]c([C@H](C)O)c([C@H](C)O)c2c1,"inconclusive: 1.04 µM [inhibitor, partial curve, poor fit]",
CCCCCCCNC(=O)CC(NS(=O)(=O)c1ccc(NC(C)=O)cc1)C(C)C (configuration not stated),"inconclusive: 10.4 µM [inhibitor, partial curve]",
CCOC(=O)C1(Cc2cccc(Cl)c2)CCCN(C(=O)c2ccco2)C1 (configuration not stated),"inconclusive: 18.5 µM [inhibitor, single point]",
O=C(COC(=O)/C=C/c1ccc(OC(F)F)cc1)Nc1cccc(S(=O)(=O)N2CCCC2)c1,"inconclusive: 1.85 µM [inhibitor, partial curve, poor fit]",
CN1CCN2c3ccccc3Cc3ccccc3C2C1 (configuration not stated),"inconclusive: 19 µM [inhibitor, single point] and inconclusive: 18.5 µM [inhibitor, single point]",
CCOC(=O)C1(CCCc2ccccc2)CCN(C(=O)[C@@H]2C[C@@H](C)NC(=S)N2)CC1,"inconclusive: 18.5 µM [inhibitor, single point]",
CCOc1ccc(NC(=O)CNC(=O)c2nn(-c3ccc(OC)cc3)c(=O)c3ccccc23)cc1,,inactive: -9.85%
CCC(=O)c1ccc(OCC(O)CN2CCN(C(c3ccccc3)c3ccccc3)CC2)cc1 (configuration not stated),"inconclusive: 4.15 µM [inhibitor, partial curve, poor fit]",
Cc1ccc(S(=O)(=O)N2CCOCC2)cc1NC(=O)CNCC1CCCCC1,"inconclusive: 10.4 µM [inhibitor, partial curve, poor fit]",
Cc1cc(=O)oc2cc(OCC(=O)Nc3ccc(CN4CCOCC4)cc3)ccc12,,inactive: 1.67%
CCOC(=O)N1CC=C2C(C#N)=C(N)C(C#N)(C#N)[C@H](c3cccs3)C2C1 (some centres not stated),"inconclusive: 10.4 µM [inhibitor, single point]",
COc1cc(/C=C/C(=O)OCC(=O)N2CCN(S(=O)(=O)c3ccc(C)cc3C)CC2)ccc1O,"inconclusive: 14.7 µM [inhibitor, partial curve]",
c1csc(-c2nc(NCCCN3CCOCC3)c3ccccc3n2)c1,"inconclusive: 11.7 µM [inhibitor, single point]",
Cc1cc(/C=C2/NC(=O)NC2=O)c(C)n1-c1ccc(C#N)cc1,"inconclusive: 0.294 µM [inhibitor, full curve, poor fit]",
Cn1c(N)c(C(=O)COC(=O)CC(NC(=O)c2ccccc2Cl)c2ccccc2)c(=O)n(C)c1=O (configuration not stated),"inconclusive: 1.65 µM [inhibitor, partial curve, poor fit]",
CC(C)N1C(=O)/C(=C/c2nc3ccccc3c(=O)n2-c2ccccc2)c2ccccc21,"inconclusive: 2.08 µM [inhibitor, full curve]",
Cc1ccccc1C(=O)O/N=C(\N)c1cccc([N+](=O)[O-])c1,"inconclusive: 18.5 µM [inhibitor, single point]",
COc1ccc(CNC(=O)c2ccc(CS(=O)(=O)c3ccc(Br)cc3)o2)cc1,,inactive: -10.1%
Cc1ccc(C2=NN(C(=O)CCl)C(c3cccs3)C2)o1 (configuration not stated),active: 2.08 µM,
Cc1ccccc1-n1c(C)nnc1SCC(=O)N1CCc2ccccc2C1,"inconclusive: 0.0023 µM [inhibitor, full curve, poor fit]",
CCOC(=O)C1CCCN(c2nc3c(C)cccn3c(=O)c2/C=C(\C#N)C(=O)NCc2ccco2)C1 (configuration not stated),"inconclusive: 14.7 µM [inhibitor, partial curve, poor fit]",
CN1CCN(c2ccc(Cl)cc2NC(=O)c2nn(-c3ccccc3)c(=O)c3ccccc23)CC1,active: 14.7 µM,
CC1(C)Cc2c(cnn2-c2ccc(F)cc2)C(NC(=O)C(C)(C)O)C1 (configuration not stated),,inactive: -25.9%

# One compound at a time, from the list above:
# CCC(=O)c1ccc(OCC(O)CN2CCN(C(c3ccccc3)c3ccccc3)CC2)cc1 (configuration not stated) reads Potency: inconclusive: 4.15 µM [inhibitor, partial curve, poor fit]
# Cc1cc(/C=C2/NC(=O)NC2=O)c(C)n1-c1ccc(C#N)cc1 reads Potency: inconclusive: 0.294 µM [inhibitor, full curve, poor fit]
# CCOC(=O)N1CC=C2C(C#N)=C(N)C(C#N)(C#N)[C@H](c3cccs3)C2C1 (some centres not stated) reads Potency: inconclusive: 10.4 µM [inhibitor, single point]
# CN1CCN2c3ccccc3Cc3ccccc3C2C1 (configuration not stated) reads Potency: inconclusive: 19 µM [inhibitor, single point] and inconclusive: 18.5 µM [inhibitor, single point]

# (further entries)

SMILES,Potency,"activity change, negative = inhibition"
CCN(C(=O)COC(=O)c1c(-c2ccccc2)noc1C)C1CCS(=O)(=O)C1 (configuration not stated),"inconclusive: 0.0657 µM [inhibitor, full curve, poor fit]",
CN(C)S(=O)(=O)N1CCN(C(=O)c2ccc3c(c2)OCO3)CC1,,inactive: 6.87%
CC1(C(=O)O)CCC(C(=O)Nc2ccc(Cl)c(Cl)c2)C1(C)C (configuration not stated),active: 10.4 µM,
O=c1c2ccccc2[nH]c2ccccc12,active: 1.47 µM,
COc1ccc2[nH]cc(C(=O)CN3CCCC(C)C3)c2c1 (configuration not stated),,inactive: 22.5%
Cc1ccc(C)c(CN2C(=O)c3ccccc3S(=O)c3ccc(C(=O)NCCCN4CCCC4)cc32)c1 (configuration not stated),"inconclusive: 1.31 µM [inhibitor, full curve]",
C=C(C)CSc1nnc([C@@H](N)Cc2ccccc2)o1,"inconclusive: 2.33 µM [inhibitor, full curve, poor fit]",
COC(=O)c1[nH]c2ccc(C)cc2c1NC(=O)C1=COCCO1,"inconclusive: 18.5 µM [inhibitor, single point]",
O=C(CSc1nnc2ccc(-c3cccnc3)nn12)Nc1ccccc1,"inconclusive: 10.4 µM [inhibitor, single point]",
Cc1cccc(NC(=O)CSc2nnc([C@@H](N)Cc3c[nH]c4ccccc34)o2)c1C,active: 1.65 µM,
COC1CCN(Cc2c(C(=O)N3CCc4ccccc4C3)nc3ccc(Cl)cn23)CC1,,inactive: -1.74%
CCOc1ccccc1N1C(=O)CC(=O)NC1=O,,inactive: 23.8%
Fc1cccc(Cl)c1Cn1nnc(-c2ccc(N3CCOCC3)cc2)n1,,inactive: 23.1%
Nc1nc(CN2CCN(c3ccccc3F)CC2)nc(Nc2ccc3c(c2)OCCO3)n1,"inconclusive: 14.7 µM [inhibitor, partial curve]",
CCOc1ccc(/C(O)=C2/C(=O)C(=O)N(c3ccccn3)C2c2ccc(F)cc2)c(C)c1 (configuration not stated),,inactive: 26.6%
COC(=O)c1ccc(CSc2cc(C)c3cccc(C)c3n2)o1,"inconclusive: 16.5 µM [inhibitor, single point]",
COc1ccc(C2C(C#N)=C(N)SC(N)=C2C#N)cc1OC,,inactive: -0.955%
CSc1ccc(C(=S)N2CCN(Cc3ccccc3)CC2)cc1,"inconclusive: 18.5 µM [inhibitor, single point]",
O=C(Nc1ccc(Br)cc1)c1cc(S(=O)(=O)Nc2ccccn2)ccc1Cl,,inactive: 9.51%
Cc1cc([N+](=O)[O-])nn1Cc1ccc(C(=O)N/N=C/c2ccc(O)cc2O)cc1,,inactive: -89.3%
COc1cccc(OC)c1OC(=O)/C=C/c1ccc(C)o1,,inactive: 2.02%
CCN(CC(=O)NC1CCS(=O)(=O)C1)c1ccc([N+](=O)[O-])cc1C#N (configuration not stated),"inconclusive: 13.1 µM [inhibitor, single point]",
Cc1ccccc1-n1nc2c(c1NC(=O)c1cccc(F)c1)CS(=O)C2 (configuration not stated),"inconclusive: 4.65 µM [inhibitor, partial curve]",

SMILES,Potency,"activity change, negative = inhibition"
Cc1cccc(NC(=O)Cn2c(=O)n(CCC(=O)NC3CCCC3)c(=O)c3ccccc32)c1,active: 2.08 µM,
O=C(O)C/C(=C\c1ccc(N2CCOCC2)c([N+](=O)[O-])c1)c1nc2ccccc2s1,"inconclusive: 5.86 µM [inhibitor, partial curve, poor fit]",
Cc1ccc(N(CC(=O)NCC2CCCO2)C(=O)CCC(=O)Nc2nccs2)cc1 (configuration not stated),"inconclusive: 18.5 µM [inhibitor, single point]",
COC(=O)c1cccc(NC(=O)Nc2ccc(Cl)cc2Cl)c1,"inconclusive: 0.0029 µM [inhibitor, full curve, poor fit]",
Cc1nc([N+](=O)[O-])c(C(=O)OCc2ccccc2F)n1C,"inconclusive: 6.57 µM [inhibitor, single point]",
Cn1cccc1CNCc1ccc(F)cc1,"inconclusive: 4.15 µM [inhibitor, single point]",
Nc1nc(Nc2cccc(F)c2)nc(NCCO)c1[N+](=O)[O-],"inconclusive: 10.4 µM [inhibitor, single point]",
Cc1ccc(OCCSc2nc3ccccc3n2CC(=O)O)c(C(C)C)c1,,inactive: -20.9%
COc1ccccc1NS(=O)(=O)c1ccc(C(=O)N2CCCCCCC2)cc1,"inconclusive: 11.7 µM [inhibitor, single point]",
CC(=O)Oc1ccc(C(=O)NCc2ccco2)cc1,"inconclusive: 18.5 µM [inhibitor, single point]",
CC(C)c1nnc(NC(=O)CCC(=O)N2CCN(c3ccc(Cl)cc3)CC2)s1,"inconclusive: 18.5 µM [inhibitor, single point]",
Cc1ccccc1S(=O)Cc1ccc(C(=O)N2CCN(C(=O)c3ccco3)CC2)o1 (configuration not stated),"inconclusive: 18.5 µM [inhibitor, single point]",
Cc1occc1C(=O)Nc1ccc2c(c1)CCC2,,inactive: 25.1%
O=c1oc(-c2cccs2)nc2c1cnn2-c1ccccc1,,inactive: -28.4%
O=C(CSc1nccc(-c2cccs2)n1)Nc1ccccc1,,inactive: -41.3%
Cc1cccc(N(C(=O)Cn2nnc3ccccc32)C(C(=O)NC(C)(C)C)c2ccsc2)c1C (configuration not stated),"inconclusive: 11.7 µM [inhibitor, single point]",
O=[N+]([O-])c1ccc(N2CCN(S(=O)(=O)c3ccccc3)CC2)cc1NCC1CCCO1 (configuration not stated),"inconclusive: 0.0586 µM [inhibitor, full curve, poor fit]",
COc1cc2nc(SCc3c(C)noc3C)n(CCC3=CCCCC3)c(=O)c2cc1OC,active: 1.65 µM,
CCOc1cc(N2CCOCC2)c(OCC)cc1NC(=O)C1CC(=O)N(c2ccccc2OCC)C1 (configuration not stated),"inconclusive: 11.7 µM [inhibitor, single point]",
CC1/C(=N/O)CC(c2ccco2)NC1c1ccco1 (configuration not stated),"inconclusive: 13.1 µM [inhibitor, single point]",
Cc1c(C)c2c(OCC(=O)N[C@@H](C(=O)O)c3ccccc3)cc3c(c2oc1=O)CCC(C)(C)O3,"inconclusive: 18.5 µM [inhibitor, single point]",
